Values from PubChem BioAssay AID1259308 (NCATS, 2017).

Test: 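Genes whose loss raises luciferase production in HEK293 cells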 (primary screen)
Cell system: human HEK293 embryonic kidney cells stably expressing firefly luciferase (HEK-CMV-Luc2-Hygro)
Reagent: single siRNA against human genes, 0.8 pmol siRNA per well
Duration: 72 h
Read-out: 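Luciferase light (ONE-Glo) measured on one replicate plate set and viability (CellTiter-Glo) on the other, scaled to a negative control siRNA, with robust z-scores and luciferase per cell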
Reading the numbers: total luciferase, z-score and total luciferase, % of control: higher = more reporter protein produced
Rule for the call: 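An siRNA counts as active if its total luciferase robust z-score exceeds 3; genes with two or more such siRNAs out of three were retested with fresh siRNAs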
Calls: active = raised luciferase; inactive = no rise
In all, the deposit lists about 59,000 reagents; this is an unselected part. About 1,510 of all reagents (2.6%) were called active. 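Calls use total luciferase alone and ignore viability, so some active siRNAs may act by altering cell number.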 Further read-outs or replicates are left out here.

| Gene | PubChem SID | total luciferase, z-score | total luciferase, % of control | outcome |
| --- | --- | --- | --- | --- |
| ZNF658 (GeneID 26149) | SID160737701 | 0.23 | 86.5 | inactive |
| ZNF658 (GeneID 26149) | SID160737702 | 0.109 | 84.1 | inactive |
| ZNF658 (GeneID 26149) | SID160737703 | 3.09 | 143 | active |
| ZNF419 (GeneID 79744) | SID160749339 | 1.29 | 108 | inactive |
| ZNF419 (GeneID 79744) | SID160749340 | -0.388 | 74.2 | inactive |
| ZNF419 (GeneID 79744) | SID160749341 | -0.166 | 78.6 | inactive |
| ACSL1 (GeneID 2180) | SID160763622 | 2.51 | 132 | inactive |
| ACSL1 (GeneID 2180) | SID160763633 | -0.031 | 81.3 | inactive |
| ACSL1 (GeneID 2180) | SID160763644 | 0.157 | 85 | inactive |
| DSTN (GeneID 11034) | SID160729792 | -1.24 | 57.3 | inactive |
| DSTN (GeneID 11034) | SID160729793 | 0.797 | 97.7 | inactive |
| DSTN (GeneID 11034) | SID160732311 | 3.81 | 158 | active |
| MRPL23 (GeneID 6150) | SID160716067 | -0.428 | 73.4 | inactive |
| MRPL23 (GeneID 6150) | SID160716068 | 1.21 | 106 | inactive |
| MRPL23 (GeneID 6150) | SID160733710 | 0.581 | 93.4 | inactive |
| TSSK1B (GeneID 83942) | SID160751567 | -0.37 | 74.5 | inactive |
| TSSK1B (GeneID 83942) | SID160751568 | 1.82 | 118 | inactive |
| TSSK1B (GeneID 83942) | SID160751569 | 0.0731 | 83.3 | inactive |
| RAB40C (GeneID 57799) | SID160746720 | -0.434 | 73.2 | inactive |
| RAB40C (GeneID 57799) | SID160746722 | -0.555 | 70.8 | inactive |
| RAB40C (GeneID 57799) | SID160746723 | -0.0873 | 80.2 | inactive |
| HGF (GeneID 3082) | SID160774929 | 0.185 | 85.6 | inactive |
| HGF (GeneID 3082) | SID160774930 | 3.45 | 150 | active |
| HGF (GeneID 3082) | SID160774931 | -1.17 | 58.6 | inactive |
| DRC4 (GeneID 2622) | SID160769425 | 1.35 | 109 | inactive |
| DRC4 (GeneID 2622) | SID160769431 | 0.0701 | 83.3 | inactive |
| DRC4 (GeneID 2622) | SID160769441 | -0.511 | 71.7 | inactive |
| JUN (GeneID 3725) | SID160776085 | -0.0646 | 80.6 | inactive |
| JUN (GeneID 3725) | SID160776086 | 0.598 | 93.8 | inactive |
| JUN (GeneID 3725) | SID160776088 | -0.516 | 71.6 | inactive |
| LEAP2 (GeneID 116842) | SID160732361 | -1.55 | 51.1 | inactive |
| LEAP2 (GeneID 116842) | SID160755475 | -1.19 | 58.3 | inactive |
| LEAP2 (GeneID 116842) | SID160755476 | 1.66 | 115 | inactive |

Reformatted: 6 of the entries above
JUN (GeneID 3725) [SID160776085]
- total luciferase, z-score: -0.0646
- total luciferase, % of control: 80.6
- outcome: inactive

JUN (GeneID 3725) [SID160776086]
- total luciferase, z-score: 0.598
- total luciferase, % of control: 93.8
- outcome: inactive

JUN (GeneID 3725) [SID160776088]
- total luciferase, z-score: -0.516
- total luciferase, % of control: 71.6
- outcome: inactive

LEAP2 (GeneID 116842) [SID160732361]
- total luciferase, z-score: -1.55
- total luciferase, % of control: 51.1
- outcome: inactive

LEAP2 (GeneID 116842) [SID160755475]
- total luciferase, z-score: -1.19
- total luciferase, % of control: 58.3
- outcome: inactive

LEAP2 (GeneID 116842) [SID160755476]
- total luciferase, z-score: 1.66
- total luciferase, % of control: 115
- outcome: inactive

More entries follow:
| Gene | PubChem SID | total luciferase, z-score | total luciferase, % of control | outcome |
| --- | --- | --- | --- | --- |
| TMEM91 (GeneID 641649) | SID160768425 | 0.461 | 91.1 | inactive |
| TMEM91 (GeneID 641649) | SID160768426 | -0.0809 | 80.3 | inactive |
| TMEM91 (GeneID 641649) | SID160768427 | 1.12 | 104 | inactive |
| CCDC17 (GeneID 149483) | SID160758839 | -1.56 | 50.8 | inactive |
| CCDC17 (GeneID 149483) | SID160758840 | 3.79 | 157 | active |
| CCDC17 (GeneID 149483) | SID160758841 | 0.00142 | 81.9 | inactive |
| TSLIG1 (GeneID 339487) | SID160764245 | -0.27 | 76.5 | inactive |
| TSLIG1 (GeneID 339487) | SID160764246 | 0.0588 | 83.1 | inactive |
| TSLIG1 (GeneID 339487) | SID160764247 | -0.691 | 68.1 | inactive |
| SOX11 (GeneID 6664) | SID160717216 | 1.18 | 105 | inactive |
| SOX11 (GeneID 6664) | SID160724083 | -1.25 | 57 | inactive |
| SOX11 (GeneID 6664) | SID160731777 | 0.253 | 86.9 | inactive |
| BEGAIN (GeneID 57596) | SID160746375 | 3.44 | 150 | active |
| BEGAIN (GeneID 57596) | SID160746376 | -0.631 | 69.3 | inactive |
| BEGAIN (GeneID 57596) | SID160746377 | -1.45 | 53 | inactive |
| TGIF1 (GeneID 7050) | SID160718011 | 2.53 | 132 | inactive |
| TGIF1 (GeneID 7050) | SID160718012 | -1.17 | 58.7 | inactive |
| TGIF1 (GeneID 7050) | SID160718013 | 1 | 102 | inactive |
| LEUTX (GeneID 342900) | SID160733108 | -0.694 | 68.1 | inactive |
| LEUTX (GeneID 342900) | SID160764647 | -0.43 | 73.3 | inactive |
| LEUTX (GeneID 342900) | SID160764648 | 1.49 | 112 | inactive |
| PNPP1 (GeneID 647275) | SID160734039 | -1.16 | 58.9 | inactive |
| PNPP1 (GeneID 647275) | SID160770180 | 0.0606 | 83.1 | inactive |
| PNPP1 (GeneID 647275) | SID160770181 | 2.18 | 125 | inactive |
